According to US20220409581A1, “METHODS AND COMPOSITIONS FOR TREATMENT OF SOLID TUMORS USING F16 ISOINDOLE SMALL MOLECULES” (Nova Southeastern University, priority 2019, published 2022):
For at least one compound, name, drawing or mass did not settle the structure.

Legend:
U87MG cells [1] = experiment: Morphological observation; format: cell-based, human; conditions: 24 h; concentration-dependent up to F16 100 μM, TMZ 1000 μM
U87MG cells [2] = experiment: Scratch (wound healing) migration assay; format: cell-based, human; conditions: 12 and 24 h post-scratch; F16 20 μM, TMZ 400 μM
U87MG cells [3] = experiment: Matrigel invasion assay; format: cell-based, human; conditions: 24 h; F16 0.1-20 μM, TMZ up to 400 μM, versus untreated control
U87MG cells [4] = experiment: RT-PCR gene expression analysis; format: cell-based, human
U87MG cells [5] = experiment: Western blot of downstream, apoptosis and invasion proteins; format: cell-based, human; conditions: 24 h treatment
[6] = test system: Glioblastoma multiforme (GBM); conditions: cited from earlier work
[7] = F16 10 & 20 μM, TMZ 200 & 400 μM, combination
[8] = TMZ 400 μM, F16+TMZ 20 & 400 μM, vs control

For Cn1nnc2c(C(N)=O)ncn2c1=O [TMZ, Temozolomide, reference compound], the “cellular morphology of U87MG cells” value (U87MG cells [1]) was “changed cellular morphology”, the “migration of U87MG cells post-scratch” value (U87MG cells [2]) was “inhibition of migration up to 12 h post-scratch” and the “U87MG cells invading through the Matrigel matrix” value (U87MG cells [3]) was “marginally inhibit”. For the same molecule, the “Bcl2 mRNA level” value (U87MG cells [4]) was “markedly down-regulated”, the “MMP-2 mRNA level” value (U87MG cells [4]) was “markedly down-regulated” and the “MMP-9 mRNA level” value (U87MG cells [4]) was “markedly down-regulated”. For the same molecule, the “Bax mRNA level” value (U87MG cells [4]; [7]) was “significantly up-regulated”, the “p53 mRNA level” value (U87MG cells [4]; [7]) was “significantly up-regulated” and the “AKT mRNA level” value (U87MG cells [4]; [8]) was “down-regulated”. The “VEGFR-2 mRNA level” value (U87MG cells [4]; [8]) was “down-regulated”, the “p21 mRNA level” value (U87MG cells [4]; vs control) was “slight elevation” and the Bax protein expression (U87MG cells [5]) was “increased”. For the same molecule, the Bcl2 protein expression (U87MG cells [5]) was “inhibited”, the p21 protein expression (U87MG cells [5]) was “markedly downregulated” and the p53 protein expression (U87MG cells [5]) was “lesser increase”. For the same molecule, the p-ERK1/2 expression (U87MG cells [5]) was “upregulated”, the “increase of overall median survival” value ([6]; TMZ added to radiotherapy vs radiotherapy alone) was 2.6 months and the “percentage of patients who live 2 years” value ([6]; TMZ plus RT, 10.4% with RT alone) was 26.5%. For the same molecule, the overall median survival ([6]; TMZ plus radiotherapy, radiotherapy alone 12 (12.1) months) was 14.6 months and the “patients who fail the treatment after 6 months of tumor progression” value ([6]; human, in vivo) was “more than 50%”.
